PubChem BioAssay (NCATS)
This is one part of the list. Shown are side measurements of this screen, not its main read-out; they come without a call. Most of these compounds were active or inconclusive in the main read-out, so they are no random draw. Potencies come from curve fits of mixed quality, noted in brackets.

Assay: S16 Schwann cell PMP22 intronic element beta-lactamase assay (AID 624044)
Conditions: S16 rat Schwann cells, PMP22 element beta-lactamase FRET, 24 h; measured here: 460 nm blue channel
How it was run: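 Rat S16 Schwann cells with beta-Lac driven by a PMP22 intronic element, compound-treated 24 h at 37 °C. LiveBLAzer FRET B/G read: 460 nm normalized to potassium clavulanate vs DMSO; 535 nm FRET as viability; concentration-effect curves classified.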

Question: Which AC50 does the source give for `OCCOC[C@H]1O[C@H](OCCO)[C@H](OCCO)[C@@H](OCCO)[C@@H]1OCCO` (tested in a mixture with another compound) here?
Answer: 12.6 µM [falling, full curve, poor fit]

Question: Which AC50 does the source give for `Cc1ccc(O)c2ncccc12` here?
Answer: 0.0158 µM [falling, full curve, poor fit]

Question: For `O=S1(=O)c2cccc3cccc(c23)N1CCCN1CCN(c2ccc(F)cc2)CC1`, which AC50 is on record?
Answer: 1.41 µM [falling, full curve]

Question: Which AC50 does the source give for `CCC(C(=O)O)C1OC(C(C)C(O)C(C)C(=O)C(CC)C2OC3(C=CC(O)C4(CCC(C)(C5CCC(O)(CC)C(C)O5)O4)O3)C(C)CC2C)C(C)CC1C` (stereo unspecified) here?
Answer: 7.07 µM [falling, partial curve]

Question: For `CCC(C)C1NC(=O)C(Cc2ccc(O)cc2)NC(=O)C(N)CSSCC(C(=O)N2CCCC2C(=O)NC(CC(C)C)C(=O)NCC(N)=O)NC(=O)C(CC(N)=O)NC(=O)C(CCC(N)=O)NC1=O` (stereo unspecified), which AC50 is on record?
Answer: 1.41 µM [falling, full curve, poor fit]

Question: Which AC50 does the source give for `CN1C(CCl)Nc2cc(Cl)c(S(N)(=O)=O)cc2S1(=O)=O` (stereo unspecified) here?
Answer: 25.1 µM [falling, single point]

Question: With `NCC1CCC(N)C(O[C@@H]2C(O)[C@H](O[C@H]3OC(CO)C(O)C(N)C3O)[C@@H](N)C[C@H]2N)O1` (stereo partly specified) as the compound, how does the AC50 read?
Answer: 4.46 µM [falling, partial curve, poor fit]

Question: For `CC(=O)OC[C@H]1O[C@@H](n2ncc(=O)[nH]c2=O)[C@H](OC(C)=O)[C@@H]1OC(C)=O`, which AC50 is on record?
Answer: 5.62 µM [falling, full curve]

Question: With `Clc1ccccc1-c1nc(-c2ccncc2)no1` as the compound, how does the AC50 read?
Answer: 7.07 µM [falling, partial curve, poor fit]

Question: With `Cc1nc2ccccc2n1Cc1ccc(Cl)cc1` as the compound, how does the AC50 read?
Answer: 14.1 µM [falling, single point]

Question: With `CC(C)OC(=O)Nc1ccc2nc(-c3cscn3)[nH]c2c1` as the compound, how does the AC50 read?
Answer: 2.24 µM [falling, partial curve, poor fit]

Question: For `C#C[C@]1(O)CC[C@H]2[C@H]3[C@H](CC[C@@]21C)C1=C(CC(=O)CC1)C[C@@H]3C`, which AC50 is on record?
Answer: 14.1 µM [falling, single point]

Question: With `Cc1ccc(C(C)(C)c2ccc(C)cc2)cc1` as the compound, how does the AC50 read?
Answer: 8.91 µM [rising, partial curve, poor fit]

Question: Which AC50 does the source give for `CO/N=C(\C(=O)N[C@@H]1C(=O)N2C(C(=O)[O-])=C(C[n+]3cccc4c3CCC4)CS[C@H]12)c1csc(N)n1` here?
Answer: 0.398 µM [falling, full curve, poor fit]

Question: For `Cc1cncc(C(=O)O)[n+]1[O-]`, which AC50 is on record?
Answer: 0.0999 µM [falling, full curve, poor fit]

Question: For `CCCCCCCCCCCCCC(=O)OCC(COP(=O)([O-])OCC[N+](C)(C)C)OC(=O)CCCCCCCCCCCCC` (stereo unspecified), which AC50 is on record?
Answer: 1.12 µM [falling, full curve, poor fit]

Question: With `N=C(N)N1CCc2ccccc2C1` as the compound, how does the AC50 read?
Answer: 0.0355 µM [falling, full curve, poor fit]

Question: Which AC50 does the source give for `CNC1CCc2cc(OC)c(OC)c(OC)c2-c2ccc(OC)c(=O)cc21` (stereo unspecified) here?
Answer: 0.224 µM [falling, full curve]

Question: Which AC50 does the source give for `O=C(O)[C@H]1CN(C/C=C/P(=O)(O)O)CCN1` here?
Answer: 25.1 µM [rising, single point]

Question: With `CCC(=O)c1ccc2c(c1)N(CCCN1CCN(CCO)CC1)c1ccccc1S2` as the compound, how does the AC50 read?
Answer: 1.58 µM [falling, full curve, poor fit]

Question: For `C[C@@H]1CC2[C@@H]3C[C@H](F)C4=CC(=O)C(Cl)=C[C@]4(C)[C@@]3(F)[C@H](O)C[C@]2(C)[C@@]1(O)C(=O)CO` (stereo partly specified), which AC50 is on record?
Answer: 0.224 µM [falling, full curve, poor fit]

Question: Which AC50 does the source give for `CCCCCCCCCCC(CO)CCCCCCCC` (stereo unspecified) here?
Answer: 1.99 µM [falling, full curve, poor fit]

Question: For `C=C1C(=CC=C2CCC[C@@]3(C)[C@@H]2CC[C@H]3[C@H](C)CCCC(C)C)C[C@@H](O)C[C@@H]1O`, which AC50 is on record?
Answer: 7.07 µM [falling, partial curve, poor fit]

Question: With `Nc1ccc(C(=O)Nc2ccccc2N)cc1` as the compound, how does the AC50 read?
Answer: 15.8 µM [falling, partial curve, poor fit]

Question: Which AC50 does the source give for `COc1cccc2c1C(=O)c1c(O)c3c(c(O)c1C2=O)C[C@@](O)(C(=O)CO)C[C@@H]3OC1CC(N)C(O)C(C)O1` (stereo partly specified) here?
Answer: 0.501 µM [falling, full curve]

Question: For `CC(C)CC(NC(=O)C(COC(C)(C)C)NC(=O)C(Cc1ccc(O)cc1)NC(=O)C(CO)NC(=O)C(Cc1c[nH]c2ccccc12)NC(=O)C(Cc1cnc[nH]1)NC(=O)C1CCC(=O)N1)C(=O)NC(CCCN=C(N)N)C(=O)N1CCCC1C(=O)NNC(N)=O` (stereo unspecified), which AC50 is on record?
Answer: 0.891 µM [falling, full curve, poor fit]

Question: For `CCCCOc1cc(C(=O)NCCN(CC)CC)c2ccccc2n1`, which AC50 is on record?
Answer: 0.239 µM [falling, full curve, poor fit]

Question: For `NC(=S)NS(=O)(=O)c1ccc(N)cc1`, which AC50 is on record?
Answer: 0.999 µM [falling, full curve]

Question: Which AC50 does the source give for `Nc1nc(Cl)nc2c1ncn2C1CC(O)C(CO)O1` (stereo unspecified) here?
Answer: 2.82 µM [falling, full curve]

Question: With `CC1(C)C[C@@H]1C(=O)N/C(=C\CCCCSC[C@H](N)C(=O)O)C(=O)O` as the compound, how does the AC50 read?
Answer: 0.0794 µM [falling, full curve, poor fit]

Question: With `NC[C@@H]1O[C@H](O[C@H]2[C@H](O)[C@H](O[C@@H]3O[C@H](CO)[C@@H](O)[C@H](N)[C@@H]3O)[C@@H](N)C[C@H]2N)[C@@H](O)[C@H](O)[C@@H]1O` as the compound, how does the AC50 read?
Answer: 6 µM [falling, partial curve, poor fit]

Question: With `CO[C@]12C(COC(N)=O)C3=C(C(=O)C(C)=C(N)C3=O)N1CC1NC12` (stereo partly specified) as the compound, how does the AC50 read?
Answer: 7.07 µM [falling, partial curve]

Question: Which AC50 does the source give for `O=C(N/N=C/c1ccccc1O)c1ccncc1` here?
Answer: 28.2 µM [falling, single point]

Question: With `CCCCN(CCCC)CCCOC(=O)c1ccc(N)cc1` as the compound, how does the AC50 read?
Answer: 0.0268 µM [rising, full curve, poor fit]

Question: With `C#C[C@]1(O)CC[C@@H]2[C@H]3CCC4=CC(=O)CC[C@H]4[C@H]3C(=C)C[C@@]21CC` as the compound, how does the AC50 read?
Answer: 5.62 µM [falling, full curve]

Question: With `Cc1ccc(S(=O)(=O)NCl)cc1` as the compound, how does the AC50 read?
Answer: 0.891 µM [rising, full curve, poor fit]
